# Source: patent US20090306137A1, “TREATMENT FOR DEPRESSIVE DISORDERS” (priority 2006, published 2009)
# The chains behind the UniProt entries cited, without tags or fusion partners.
# UniProt P28223, whole entry, species assumed: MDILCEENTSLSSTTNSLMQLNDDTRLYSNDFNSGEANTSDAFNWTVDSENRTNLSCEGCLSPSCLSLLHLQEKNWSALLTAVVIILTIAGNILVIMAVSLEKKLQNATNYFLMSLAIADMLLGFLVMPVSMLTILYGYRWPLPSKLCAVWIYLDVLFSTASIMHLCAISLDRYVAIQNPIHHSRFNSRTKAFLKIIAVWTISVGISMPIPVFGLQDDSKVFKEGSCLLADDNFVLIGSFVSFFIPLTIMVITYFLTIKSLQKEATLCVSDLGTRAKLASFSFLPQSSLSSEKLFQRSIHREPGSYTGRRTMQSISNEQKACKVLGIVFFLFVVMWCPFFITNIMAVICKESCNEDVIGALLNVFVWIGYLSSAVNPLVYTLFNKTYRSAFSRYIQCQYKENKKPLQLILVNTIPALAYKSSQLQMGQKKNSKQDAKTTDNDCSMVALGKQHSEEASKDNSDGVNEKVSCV
# Biological target: 5-HT2A (Homo sapiens, UniProt P28223)
# Test: receptor affinity
# Format: binding
# Details: high affinity
smiles,measurement,value
"COc1cc(C(C)=O)ccc1OCCCN1CCC(c2noc3cc(F)ccc23)CC1 [Iloperidone, 1-[4-[3-[4-(6-flouro-1,2-benzisoxazol-3-yl)-1-piperidinyl]propoxy]-3-methoxyphenyl]ethanone]",Kd,< 10 nM
